Reference: publication PMC9190063
These are yes or no findings as the source states them, for the method shown. Binding seen in cells or lysates may run through a third protein. Some entries that bind do so weakly or less than the wild type.

The chains behind the UniProt entries cited, without tags or fusion partners.
UniProt P83917: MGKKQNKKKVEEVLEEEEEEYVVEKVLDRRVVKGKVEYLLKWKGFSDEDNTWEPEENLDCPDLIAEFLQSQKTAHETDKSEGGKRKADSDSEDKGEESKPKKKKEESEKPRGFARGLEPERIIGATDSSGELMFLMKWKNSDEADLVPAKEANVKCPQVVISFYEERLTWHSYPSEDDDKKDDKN
UniProt O70494: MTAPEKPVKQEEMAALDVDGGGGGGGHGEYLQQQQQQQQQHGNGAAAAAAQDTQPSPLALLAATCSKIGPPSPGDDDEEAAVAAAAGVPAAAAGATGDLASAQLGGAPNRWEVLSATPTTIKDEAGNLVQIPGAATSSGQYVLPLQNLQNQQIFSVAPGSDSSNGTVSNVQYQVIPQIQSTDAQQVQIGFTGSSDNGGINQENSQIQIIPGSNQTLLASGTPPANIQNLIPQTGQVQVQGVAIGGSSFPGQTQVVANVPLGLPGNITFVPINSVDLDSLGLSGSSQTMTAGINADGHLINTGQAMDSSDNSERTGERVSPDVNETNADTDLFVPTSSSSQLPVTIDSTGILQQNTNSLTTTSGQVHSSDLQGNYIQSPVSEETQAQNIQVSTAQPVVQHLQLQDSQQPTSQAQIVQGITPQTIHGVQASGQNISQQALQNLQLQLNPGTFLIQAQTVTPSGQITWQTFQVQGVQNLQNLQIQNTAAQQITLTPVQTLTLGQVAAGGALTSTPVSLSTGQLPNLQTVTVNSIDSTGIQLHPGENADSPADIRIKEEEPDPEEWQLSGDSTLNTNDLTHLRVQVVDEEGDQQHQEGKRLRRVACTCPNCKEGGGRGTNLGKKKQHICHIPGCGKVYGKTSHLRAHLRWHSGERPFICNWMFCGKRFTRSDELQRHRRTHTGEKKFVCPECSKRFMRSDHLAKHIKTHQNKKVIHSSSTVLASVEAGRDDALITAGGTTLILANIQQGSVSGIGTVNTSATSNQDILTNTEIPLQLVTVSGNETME
UniProt Q921E6: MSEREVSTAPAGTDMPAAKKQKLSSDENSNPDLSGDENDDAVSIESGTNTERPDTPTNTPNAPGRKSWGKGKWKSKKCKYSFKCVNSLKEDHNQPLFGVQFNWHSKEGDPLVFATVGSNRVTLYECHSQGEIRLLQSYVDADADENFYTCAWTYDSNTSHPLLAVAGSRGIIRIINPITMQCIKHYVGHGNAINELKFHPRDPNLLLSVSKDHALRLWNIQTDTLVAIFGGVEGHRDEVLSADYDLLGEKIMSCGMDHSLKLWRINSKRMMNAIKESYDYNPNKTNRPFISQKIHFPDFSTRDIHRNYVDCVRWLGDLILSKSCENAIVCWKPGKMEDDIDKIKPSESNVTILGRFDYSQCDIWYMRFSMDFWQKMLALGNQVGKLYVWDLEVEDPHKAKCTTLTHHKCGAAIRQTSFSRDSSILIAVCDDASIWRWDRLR

What was measured:
Test in all cases: co-IP; endogenous Cbx1, PurB or Sp3 immunoprecipitated from cardiac fibroblast cell lysates, isotype antibody as control; immunoprecipitates immunoblotted for Cbx1, PurB, Sp3 or Eed; in one panel cells were transfected with control or PurB siRNA 3 days before the Cbx1 immunoprecipitation
[1] = target: heterochromatin protein Cbx1 (mouse (endogenous in cardiac fibroblasts)) (UniProt P83917)
[2] = target: transcription factor Sp3 (mouse (endogenous in cardiac fibroblasts)) (UniProt O70494)
[3] = target: T1, transcriptional activator protein PurB (mouse (endogenous in cardiac fibroblasts)) (UniProt O35295)
T1 sequence: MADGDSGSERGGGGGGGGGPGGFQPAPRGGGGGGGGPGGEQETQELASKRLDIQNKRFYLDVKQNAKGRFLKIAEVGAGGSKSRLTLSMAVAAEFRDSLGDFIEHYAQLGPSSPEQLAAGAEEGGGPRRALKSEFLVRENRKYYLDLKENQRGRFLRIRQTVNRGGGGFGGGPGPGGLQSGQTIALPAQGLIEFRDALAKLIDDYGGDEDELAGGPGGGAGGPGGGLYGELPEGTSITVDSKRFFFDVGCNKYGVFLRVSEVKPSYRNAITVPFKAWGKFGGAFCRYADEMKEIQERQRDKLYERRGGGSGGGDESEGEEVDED

binding [1]: binds
binding [2]: binds
binding [3]: binds
Substance: Eed (from UniProt Q921E6 1-441)
